Experimental data: PubChem BioAssay AID504804 (Drosophila RNAi Screening Center, 2011)
Assay: 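Fly genes whose loss lessens doxorubicin-driven cell death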 (primary screen). System: Drosophila Kc cells. Reagents: long dsRNA against Drosophila genes, 0.5 µg dsRNA per well. Duration: 96 h (48 h knock-down, then 48 h drug). Conditions: doxorubicin 5 µg/ml for 48 h, added 48 h after dsRNA. Measured: 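Luminescent ATP counts per replicate, not normalised, reflecting viable cells after 48 h dsRNA knock-down followed by 48 h of 5 µg/ml doxorubicin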. Scale: raw ATP luminescence: higher = more viable cells, protection from doxorubicin. Rule for the call: 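z-score of 2 or more over plate mean in both duplicates, retained only when retests and separate dsRNAs confirm the protection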.
The screen tested about 19,000 reagents; shown is a random part of those that have a named target and a result. Of all reagents, 47 (0.25%) are marked active. 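Signals are raw, not normalised; exact z-scores behind calls not deposited; actives needed confirmation, so some wells reaching 2 SD are inactive.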 Names joined by + are all predicted targets of the reagent.

no.	Target gene	PubChem SID	raw ATP luminescence, replicate 1	raw ATP luminescence, replicate 2	call
1	CG9624	SID104196315	1.11e5	69230	inactive
2	CG1631	SID104200327	3.57e5	2.51e5	inactive
3	Ste:CG33238 + Ste:CG33241 + Ste:CG33236 + 11 more	SID104198796	2.62e5	2.46e5	inactive
4	Ste:CG33238 + Ste:CG33241 + Ste:CG33236 + 11 more	SID104201052	2.90e5	2.98e5	inactive
5	ItgaPS5 (Integrin alphaPS5 subunit)	SID104184293	73383	62420	inactive
6	CG34115	SID104183632	80037	80367	inactive
7	Obp99d (Odorant-binding protein 99d)	SID104194838	54470	42800	inactive
8	Ctr1A (Copper transporter 1A)	SID104198128	33010	39810	inactive
9	rost (rolling stone)	SID104183395	72080	61737	inactive
10	CG14629	SID104198268	49560	71590	inactive
11	CG18765	SID104195184	57783	49210	inactive
12	Tsp42Ef (Tetraspanin 42Ef)	SID104185983	43047	85150	inactive
13	Eaat1 (Excitatory amino acid transporter 1)	SID104183113	47660	65953	inactive
14	TFAM (mitochondrial transcription factor A)	SID104195344	60770	62017	inactive
15	RIOK2 (RIO kinase 2)	SID104194205	58770	55810	inactive
16	PRL-1 (PRL-1 phosphatase)	SID104183185	50267	62923	inactive
17	nmo (nemo)	SID104188694	1.29e5	1.46e5	inactive
18	nmo (nemo)	SID104191169	37583	35043	inactive
19	CG13465	SID104189803	51390	41447	inactive
20	CG3526	SID104197032	1.92e5	2.02e5	inactive
21	CG3526	SID104198428	72130	47690	inactive
22	Nplp1 (Neuropeptide-like precursor 1)	SID104184162	64310	55123	inactive
23	polyph (polyphemus)	SID104186046	47700	81113	inactive
24	CG7379	SID104196029	45533	34173	inactive
25	meru	SID104189192	77430	83120	inactive
26	meru	SID104189691	71223	53807	inactive
27	meru	SID104190007	89347	64693	inactive
28	Smu1 (Smu1 spliceosomal factor)	SID104195595	60943	83177	inactive
29	meng (meng-po)	SID104181926	33780	42813	inactive
30	snky (sneaky)	SID104189630	73057	80893	inactive
31	Ack-like (Activated Cdc42 kinase-like)	SID104187292	74540	60013	inactive
32	CG42713	SID104180842	3.23e5	2.35e5	inactive
33	Lip4 (Lipase 4)	SID104182722	46060	79807	inactive
34	CG32625	SID104198786	2.90e5	2.79e5	inactive
35	Cyt-c1 (Cytochrome c1)	SID104190239	30530	48753	inactive
36	mthl5 (methuselah-like 5)	SID104195947	49990	50253	inactive
37	CG10140	SID104189496	80853	73427	inactive
38	CG11398	SID104198417	54340	43790	inactive
39	CG13577	SID104184005	54187	51510	inactive
40	ppk23 (pickpocket 23)	SID104199902	2.87e5	3.55e5	inactive
41	shd (shade)	SID104190921	83510	57647	inactive
42	Toll-4	SID104183250	47243	75913	inactive
43	CG13073	SID104189748	53090	43387	inactive
44	CG6333	SID104190418	47103	40267	inactive
45	RhoU	SID104197427	2.07e5	2.69e5	inactive
46	RhoU	SID104197595	3.01e5	2.81e5	inactive
47	RhoU	SID104197596	4.51e5	3.80e5	inactive
48	Srp54k (Signal recognition particle 54k)	SID104191081	98150	84437	inactive
49	CG15226 (retired record)	SID104183621	80533	73687	inactive
50	CG15226 (retired record)	SID104184025	72617	42110	inactive
51	udd (under-developed)	SID104186512	43350	87477	inactive
52	DIP-theta (Dpr-interacting protein theta)	SID104180677	3.06e5	2.68e5	inactive
53	DIP-theta (Dpr-interacting protein theta)	SID104182132	24047	23200	inactive
54	DIP-theta (Dpr-interacting protein theta)	SID104182133	22530	28480	inactive
55	CG15740	SID104199498	82130	81680	inactive
56	wg (wingless)	SID104183428	17087	17007	inactive
57	CG4269	SID104184249	65163	48873	inactive
58	CG14383	SID104194633	81850	59240	inactive
59	Phk-3 (Pherokine 3)	SID104184339	46670	52343	inactive
60	Rab26	SID104191629	23313	17773	inactive
61	Rab26	SID104191630	63133	51030	inactive
62	Rab26	SID104191631	60307	55110	inactive
63	lush	SID104191156	79877	79410	inactive
64	CG11069	SID104194081	32257	43113	inactive
65	ea (easter)	SID104196731	89850	94880	inactive
66	CG42820 + CG42819	SID104182056	47187	58793	inactive
67	CG42820 + CG42819	SID104182057	42080	69627	inactive
68	CG11029	SID104181911	37313	35720	inactive
69	CG4324	SID104184254	53883	51587	inactive
70	Spn27A (Serpin 27A)	SID104183400	35767	48277	inactive
71	CG5721	SID104186737	51560	61897	inactive
72	bnk (bottleneck)	SID104196704	50570	44400	inactive
73	bma (black match)	SID104189688	87437	68013	inactive
74	bma (black match)	SID104189956	79963	63693	inactive
75	TSG101 (Tumor susceptibility gene 101)	SID104190890	45960	40193	inactive
76	CG34269	SID104187676	1.91e5	34843	inactive
77	CG14715	SID104194730	54790	29843	inactive
78	Alp9 (Alkaline phosphatase 9)	SID104190278	35830	45270	inactive
79	Nup214 (Nucleoporin 214kD)	SID104184213	74890	74180	inactive
80	CG6277	SID104195800	57380	35730	inactive
81	CG42729	SID104190028	56030	49543	inactive
82	Actbeta (Activin-beta)	SID104196977	1.65e5	1.72e5	inactive
83	Actbeta (Activin-beta)	SID104197009	43770	68530	inactive
84	CG5254	SID104198403	59330	71070	inactive

Laid out differently: 11 of the entries above.
Target gene,PubChem SID,"raw ATP luminescence, replicate 1","raw ATP luminescence, replicate 2",call
rost (rolling stone),SID104183395,72080,61737,inactive
CG14629,SID104198268,49560,71590,inactive
CG18765,SID104195184,57783,49210,inactive
Tsp42Ef (Tetraspanin 42Ef),SID104185983,43047,85150,inactive
Eaat1 (Excitatory amino acid transporter 1),SID104183113,47660,65953,inactive
TFAM (mitochondrial transcription factor A),SID104195344,60770,62017,inactive
RIOK2 (RIO kinase 2),SID104194205,58770,55810,inactive
PRL-1 (PRL-1 phosphatase),SID104183185,50267,62923,inactive
nmo (nemo),SID104188694,1.29e5,1.46e5,inactive
nmo (nemo),SID104191169,37583,35043,inactive
CG13465,SID104189803,51390,41447,inactive
